Data source: PubChem BioAssay AID686943 (Drosophila RNAi Screening Center, 2013)
The screen tested about 23,000 reagents; below is an unselected part of those with a known target gene and a result. 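Extra replicates exist only for a retested subset of genes; insulin dose and duration not given; both raised and lowered dpERK matter.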 The numbers tell different reagents against one gene apart. A plus sign joins genes that one reagent is predicted to hit. Further read-outs or replicates are left out here. Not stated in the record: the amount of reagent, the time to read-out.

- Aim: 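Fly genes whose loss alters ERK activation after insulin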 (primary screen)
- Cells: Drosophila S2R+ haemocyte-like cells expressing YFP-tagged ERK (Rolled)
- Reagent: long dsRNA against Drosophila genes
- Treatment: insulin stimulation versus unstimulated cells; dose and duration not given
- Measurement: 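Per-plate z-scores of phospho-ERK immunostaining normalised to YFP-tagged ERK, measured with and without insulin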
- Reading the numbers: replicate 1, z-score of dpERK with insulin: higher = more active ERK per ERK-YFP after insulin

| predicted target | dsRNA no. | replicate 1, z-score of dpERK with insulin |
| --- | --- | --- |
| scw (screw) | 1 | -0.49 |
| scw (screw) | 2 | 0.3 |
| Atac1 (Ada2a-containing complex component 1) | 1 | 0.16 |
| Tbcc (Tubulin-binding cofactor C) | 1 | -0.4 |
| CG43253 (retired record) | 1 | 0.9 |
| Pop2 | 1 | -3.28 |
| CG16787 | 1 | 0.18 |
| CG31051 | 1 | 2 |
| Fis1 (Fission, mitochondrial 1) | 1 | 0.49 |
| Hs3st-B (Heparan sulfate 3-O sulfotransferase-B) | 1 | -0.28 |
| Dera (Deoxyribose-phosphate aldolase) | 1 | 0.42 |
| Dera (Deoxyribose-phosphate aldolase) | 2 | -0.78 |
| CG9664 | 1 | 0.25 |
| bsf (bicoid stability factor) | 1 | -0.67 |
| CG15800 | 1 | 0.47 |
| Eh (Eclosion hormone) | 1 | 0.17 |
| CG7730 | 1 | 0.04 |
| CG15431 | 1 | -1.55 |
| CG14095 | 1 | 0.42 |
| pb (proboscipedia) | 1 | 0.05 |
| pb (proboscipedia) | 2 | -0.28 |
| CG14740 | 1 | 0.41 |
| asRNA:CR42743 + CG34162 | 1 | 0.79 |
| PolZ2 (DNA polymerase zeta subunit 2) | 1 | 0.15 |
| cyp33 (cyclophilin-33) | 1 | 0.47 |
| CG34168 | 1 | 0.66 |
| PIP4K (Phosphatidylinositol 5-phosphate 4-kinase) | 1 | -0.02 |
| Unc50 (Unc50 RNA binding protein) | 1 | 0.78 |
| CG14280 | 1 | -0.02 |
| Con (Connectin) | 1 | 0.51 |
| Eig71Ei | 1 | 0.39 |
| sim (single-minded) | 1 | -0.23 |
| twe (twine) | 1 | -0.14 |
| Eip74EF (Ecdysone-induced protein 74EF) | 1 | -5.46 |
| Eip74EF (Ecdysone-induced protein 74EF) | 2 | 0.77 |
| Mes2 (Mesoderm-expressed 2) | 1 | 0.39 |
| Mes2 (Mesoderm-expressed 2) | 2 | -0.87 |
| Vps45 (Vacuolar protein sorting 45) | 1 | -0.03 |
| wol (wollknaeuel) | 1 | -0.01 |
